We go through 1 molecule from publication PMC3322156.

Sequences of proteins named here, by UniProt entry; tags and fusion partners are left off.
UniProt Q9CQJ4: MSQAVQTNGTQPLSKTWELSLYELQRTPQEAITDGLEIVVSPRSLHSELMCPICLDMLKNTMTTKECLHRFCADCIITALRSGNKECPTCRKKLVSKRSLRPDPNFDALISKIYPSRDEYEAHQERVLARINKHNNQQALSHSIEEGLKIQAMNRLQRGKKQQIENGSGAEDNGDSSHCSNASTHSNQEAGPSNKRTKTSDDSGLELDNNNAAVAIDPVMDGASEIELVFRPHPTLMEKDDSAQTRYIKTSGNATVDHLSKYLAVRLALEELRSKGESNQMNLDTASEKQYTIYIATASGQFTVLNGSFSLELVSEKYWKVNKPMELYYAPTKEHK

These are yes or no findings as the source states them, for the method shown. Some binding calls cover weakened binding; strength is not graded here.

The assay addresses Ring1B (mouse (endogenous in ESCs)) (UniProt Q9CQJ4). In words: SEC; 1 mg WT E14 ESC nuclear extract treated with RNase A and Benzonase, Superose 6 10/300 GL in BC200 buffer; every other 0.5 ml fraction TCA precipitated and immunoblotted. (In general: SEC sorts molecules by how far they enter the pores of the column.)

B1: Rybp (protein, UniProt Q8CCI5 1-228)
chain: MTMGDKKSPTRPKRQAKPAADEGFWDCSVCTFRNSAEAFKCSICDVRKGTSTRKPRINSQLVAQQVAQQYATPPPPKKEKKEKVEKPDKEKPEKDKDISPSVTKKNTNKKTKPKSDILKDPPSEANSIQSANATTKTSETNHTSRPRLKNVDRSTAQQLAVTVGNVTVIITDFKEKTRSSSTSSSTVTSSAGSEQQNQSSSGSESTDKGSSRSSTPKGDMSAVNDESF
Regarding B1, the binding result is given as “binds”.
